Counter-ions that a name gives are not always drawn. Some of the results follow. Hit calls seldom repeat between salt and free forms of one compound.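 Kinases were expressed as nanoluciferase fusions in K562 cells and luminescence was read every 4 h between 2 and 18 h as percent of control, DMSO set to 100% and a positive control to 0%. A time point counts as decreased when the signal drops significantly (2 sigma). The hit call is the authors' own, does not follow from the count of time points alone, and its rule is not shown.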
Key:
Assay in all cases: kinase-Nluc reporter destabilization hit call (1 = scored as downregulated) (binary); higher = compound decreases kinase abundance
Settings in all cases: K562, 2-18 h
CDK7 = CDK7 (UniProt P50613)
CDK9 = CDK9 (UniProt P50750)
CHEK2 = CHEK2 (UniProt O96017)
CSF1R = CSF1R (UniProt P07333)
CSK = CSK (UniProt P41240)
CSNK1A1 = CSNK1A1 (UniProt P48729)
CSNK1D = CSNK1D (UniProt P48730)
DDR1 = DDR1 (UniProt Q08345)
DYRK1B = DYRK1B (UniProt Q9Y463)
DYRK2 = DYRK2 (UniProt Q92630)

The chains behind the UniProt entries cited, without tags or fusion partners. Where a name states a change or a piece, a line headed by the entry shows the natural chain unless it says otherwise.
UniProt P50613: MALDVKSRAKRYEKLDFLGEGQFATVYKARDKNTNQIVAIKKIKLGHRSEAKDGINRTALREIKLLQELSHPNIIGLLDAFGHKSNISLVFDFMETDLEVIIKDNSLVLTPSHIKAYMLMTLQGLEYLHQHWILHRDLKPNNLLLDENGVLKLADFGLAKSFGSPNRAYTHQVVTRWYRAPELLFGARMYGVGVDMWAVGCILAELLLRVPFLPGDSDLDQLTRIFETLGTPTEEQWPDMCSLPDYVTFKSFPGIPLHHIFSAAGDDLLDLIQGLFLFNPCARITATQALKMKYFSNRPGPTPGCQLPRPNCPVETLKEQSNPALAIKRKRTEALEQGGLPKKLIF
UniProt P50750, whole entry: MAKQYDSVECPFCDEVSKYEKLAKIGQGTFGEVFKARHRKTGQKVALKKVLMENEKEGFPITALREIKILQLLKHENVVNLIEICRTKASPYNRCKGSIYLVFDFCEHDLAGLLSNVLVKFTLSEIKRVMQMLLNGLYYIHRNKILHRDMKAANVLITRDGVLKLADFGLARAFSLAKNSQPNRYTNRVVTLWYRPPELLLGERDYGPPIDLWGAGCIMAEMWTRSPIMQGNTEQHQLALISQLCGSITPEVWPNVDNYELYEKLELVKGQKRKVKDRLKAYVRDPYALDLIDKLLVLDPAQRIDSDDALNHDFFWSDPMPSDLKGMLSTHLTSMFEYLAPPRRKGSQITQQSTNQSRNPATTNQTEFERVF
UniProt O96017, whole entry: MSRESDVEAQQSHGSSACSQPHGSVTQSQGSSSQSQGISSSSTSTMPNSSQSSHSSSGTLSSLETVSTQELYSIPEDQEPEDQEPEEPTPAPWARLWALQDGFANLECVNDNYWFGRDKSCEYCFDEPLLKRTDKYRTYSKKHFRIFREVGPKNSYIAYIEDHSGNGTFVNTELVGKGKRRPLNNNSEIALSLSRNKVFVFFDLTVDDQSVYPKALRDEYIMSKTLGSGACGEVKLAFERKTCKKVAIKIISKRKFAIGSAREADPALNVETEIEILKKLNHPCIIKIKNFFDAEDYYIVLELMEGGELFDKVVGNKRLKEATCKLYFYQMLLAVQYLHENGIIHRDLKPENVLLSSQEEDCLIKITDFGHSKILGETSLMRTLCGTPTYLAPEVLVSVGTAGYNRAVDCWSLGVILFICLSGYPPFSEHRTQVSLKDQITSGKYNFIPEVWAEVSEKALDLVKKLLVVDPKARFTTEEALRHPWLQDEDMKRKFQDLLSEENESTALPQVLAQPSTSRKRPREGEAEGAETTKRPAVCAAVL
UniProt P07333, whole entry: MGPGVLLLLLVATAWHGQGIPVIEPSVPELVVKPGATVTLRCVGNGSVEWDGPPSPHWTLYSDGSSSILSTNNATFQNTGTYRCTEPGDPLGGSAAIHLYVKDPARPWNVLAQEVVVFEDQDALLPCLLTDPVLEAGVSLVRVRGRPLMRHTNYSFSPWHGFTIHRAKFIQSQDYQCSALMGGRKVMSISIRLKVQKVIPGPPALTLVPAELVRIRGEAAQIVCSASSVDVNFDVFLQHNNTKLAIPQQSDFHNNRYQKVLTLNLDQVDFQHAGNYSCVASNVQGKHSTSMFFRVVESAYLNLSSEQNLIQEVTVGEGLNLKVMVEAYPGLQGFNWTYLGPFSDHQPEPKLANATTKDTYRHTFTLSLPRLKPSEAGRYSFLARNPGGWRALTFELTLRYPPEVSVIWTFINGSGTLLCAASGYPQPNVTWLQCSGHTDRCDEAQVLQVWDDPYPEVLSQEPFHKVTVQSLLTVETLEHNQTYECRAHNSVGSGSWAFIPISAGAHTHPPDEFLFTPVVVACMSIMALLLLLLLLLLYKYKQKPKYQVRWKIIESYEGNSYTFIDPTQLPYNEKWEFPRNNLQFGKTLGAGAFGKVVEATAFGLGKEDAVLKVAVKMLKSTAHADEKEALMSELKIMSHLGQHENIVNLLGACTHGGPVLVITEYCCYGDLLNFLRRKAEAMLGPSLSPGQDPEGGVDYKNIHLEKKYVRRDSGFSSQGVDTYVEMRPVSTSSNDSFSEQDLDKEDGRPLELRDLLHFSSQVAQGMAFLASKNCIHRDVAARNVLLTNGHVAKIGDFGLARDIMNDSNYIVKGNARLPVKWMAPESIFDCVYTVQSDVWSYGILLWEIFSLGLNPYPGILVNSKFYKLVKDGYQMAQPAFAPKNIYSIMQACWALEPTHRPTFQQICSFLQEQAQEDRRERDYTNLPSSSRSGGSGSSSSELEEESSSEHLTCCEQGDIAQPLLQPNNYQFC
UniProt P41240: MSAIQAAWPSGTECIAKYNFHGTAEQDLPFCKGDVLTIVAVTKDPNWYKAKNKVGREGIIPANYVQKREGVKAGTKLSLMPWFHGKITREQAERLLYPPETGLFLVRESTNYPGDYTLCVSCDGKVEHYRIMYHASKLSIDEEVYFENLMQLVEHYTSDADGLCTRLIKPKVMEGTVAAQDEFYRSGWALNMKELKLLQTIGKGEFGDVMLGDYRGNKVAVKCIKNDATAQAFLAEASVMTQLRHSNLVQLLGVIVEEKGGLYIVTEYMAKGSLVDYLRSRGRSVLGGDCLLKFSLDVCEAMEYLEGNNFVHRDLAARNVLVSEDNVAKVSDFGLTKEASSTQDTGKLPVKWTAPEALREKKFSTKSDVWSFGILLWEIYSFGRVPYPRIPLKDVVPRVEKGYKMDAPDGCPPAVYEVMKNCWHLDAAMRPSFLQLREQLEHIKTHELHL
UniProt P48729: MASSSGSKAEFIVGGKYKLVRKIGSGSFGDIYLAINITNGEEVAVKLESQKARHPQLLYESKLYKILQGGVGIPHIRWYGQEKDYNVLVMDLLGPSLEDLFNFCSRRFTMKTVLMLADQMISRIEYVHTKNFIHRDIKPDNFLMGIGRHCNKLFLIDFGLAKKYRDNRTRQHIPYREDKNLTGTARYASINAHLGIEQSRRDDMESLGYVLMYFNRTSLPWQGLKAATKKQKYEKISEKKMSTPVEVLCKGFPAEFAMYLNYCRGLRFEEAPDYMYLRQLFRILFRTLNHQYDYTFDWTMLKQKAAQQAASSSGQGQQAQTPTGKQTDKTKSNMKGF
UniProt P48730: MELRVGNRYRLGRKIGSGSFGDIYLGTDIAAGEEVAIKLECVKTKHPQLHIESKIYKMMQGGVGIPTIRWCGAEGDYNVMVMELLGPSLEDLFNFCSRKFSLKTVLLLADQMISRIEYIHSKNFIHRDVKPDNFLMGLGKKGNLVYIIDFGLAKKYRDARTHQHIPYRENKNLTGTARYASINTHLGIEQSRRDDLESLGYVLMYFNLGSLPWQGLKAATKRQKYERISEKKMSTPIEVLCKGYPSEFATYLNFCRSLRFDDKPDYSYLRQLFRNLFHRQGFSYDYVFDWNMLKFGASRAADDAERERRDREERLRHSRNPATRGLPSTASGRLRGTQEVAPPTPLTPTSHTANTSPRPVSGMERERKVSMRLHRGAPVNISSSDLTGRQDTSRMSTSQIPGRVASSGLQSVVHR
UniProt Q08345: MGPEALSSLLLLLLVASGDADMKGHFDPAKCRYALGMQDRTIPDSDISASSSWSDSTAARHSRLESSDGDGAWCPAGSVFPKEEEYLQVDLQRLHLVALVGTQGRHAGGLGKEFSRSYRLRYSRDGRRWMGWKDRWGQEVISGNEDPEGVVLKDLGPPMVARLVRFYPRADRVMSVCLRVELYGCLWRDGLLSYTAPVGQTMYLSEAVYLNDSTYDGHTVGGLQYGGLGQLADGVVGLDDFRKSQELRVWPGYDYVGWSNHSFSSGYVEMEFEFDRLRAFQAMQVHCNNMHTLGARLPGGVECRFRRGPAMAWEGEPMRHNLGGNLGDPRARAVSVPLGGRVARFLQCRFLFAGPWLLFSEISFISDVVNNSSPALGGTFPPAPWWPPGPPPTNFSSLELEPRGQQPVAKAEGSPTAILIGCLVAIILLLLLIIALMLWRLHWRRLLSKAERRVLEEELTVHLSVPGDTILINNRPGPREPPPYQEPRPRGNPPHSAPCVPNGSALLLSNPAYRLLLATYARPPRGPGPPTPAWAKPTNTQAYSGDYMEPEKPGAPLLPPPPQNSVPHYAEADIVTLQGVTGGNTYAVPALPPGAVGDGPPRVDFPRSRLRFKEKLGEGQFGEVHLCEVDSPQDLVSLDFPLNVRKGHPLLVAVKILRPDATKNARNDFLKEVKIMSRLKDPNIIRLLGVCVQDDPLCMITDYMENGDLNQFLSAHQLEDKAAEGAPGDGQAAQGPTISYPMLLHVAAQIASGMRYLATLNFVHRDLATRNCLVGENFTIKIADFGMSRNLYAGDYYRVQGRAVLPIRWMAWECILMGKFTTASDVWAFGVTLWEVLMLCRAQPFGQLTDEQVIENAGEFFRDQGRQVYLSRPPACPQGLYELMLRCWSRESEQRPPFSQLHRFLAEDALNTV
UniProt Q9Y463, whole entry, looked up: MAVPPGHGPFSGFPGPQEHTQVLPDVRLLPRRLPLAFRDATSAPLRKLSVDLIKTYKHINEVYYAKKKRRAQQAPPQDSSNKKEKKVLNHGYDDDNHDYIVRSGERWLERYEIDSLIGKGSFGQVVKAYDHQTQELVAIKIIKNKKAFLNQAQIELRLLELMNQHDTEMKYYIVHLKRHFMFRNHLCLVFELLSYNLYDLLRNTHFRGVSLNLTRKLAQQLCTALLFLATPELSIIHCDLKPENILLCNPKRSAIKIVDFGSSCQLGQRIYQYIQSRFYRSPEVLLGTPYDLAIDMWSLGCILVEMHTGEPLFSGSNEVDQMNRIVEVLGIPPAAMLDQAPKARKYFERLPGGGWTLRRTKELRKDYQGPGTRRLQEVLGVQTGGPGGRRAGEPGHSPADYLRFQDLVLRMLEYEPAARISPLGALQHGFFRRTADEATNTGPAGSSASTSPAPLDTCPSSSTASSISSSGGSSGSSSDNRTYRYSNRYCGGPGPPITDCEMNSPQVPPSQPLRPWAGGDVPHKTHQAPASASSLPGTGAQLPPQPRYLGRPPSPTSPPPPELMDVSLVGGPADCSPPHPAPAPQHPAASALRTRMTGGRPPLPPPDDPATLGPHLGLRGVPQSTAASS
UniProt Q92630: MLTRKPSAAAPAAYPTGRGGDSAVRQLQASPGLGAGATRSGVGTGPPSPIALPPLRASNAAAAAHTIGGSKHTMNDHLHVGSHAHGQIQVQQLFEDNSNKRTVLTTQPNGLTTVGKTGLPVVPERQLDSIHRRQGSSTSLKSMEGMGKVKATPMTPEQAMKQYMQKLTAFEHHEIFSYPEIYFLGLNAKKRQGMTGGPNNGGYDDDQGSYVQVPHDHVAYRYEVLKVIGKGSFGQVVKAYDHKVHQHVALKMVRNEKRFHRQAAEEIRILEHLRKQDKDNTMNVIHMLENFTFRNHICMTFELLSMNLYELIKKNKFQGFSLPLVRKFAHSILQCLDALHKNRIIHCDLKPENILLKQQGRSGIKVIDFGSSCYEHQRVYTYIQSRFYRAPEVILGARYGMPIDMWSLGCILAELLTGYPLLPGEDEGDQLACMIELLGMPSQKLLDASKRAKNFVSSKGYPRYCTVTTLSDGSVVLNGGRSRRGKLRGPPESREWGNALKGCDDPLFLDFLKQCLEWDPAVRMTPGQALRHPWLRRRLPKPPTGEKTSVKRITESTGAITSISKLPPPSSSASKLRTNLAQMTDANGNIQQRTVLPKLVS

Measured: kinase-Nluc reporter destabilization hit call

O=S(=O)(c1cccc2c(O)nccc12)N1CCCNCC1 [Hydroxyfasudil (hydrochloride)]
inactive: CDK7; 10 µM 0 | CDK9; 10 µM 0 | CHEK2; 10 µM 0 | CSF1R; 10 µM 0 | CSK; 10 µM 0 | CSNK1A1; 10 µM 0 | CSNK1D; 10 µM 0 | DDR1; 10 µM 0 | DYRK1B; 10 µM 0 | DYRK2; 10 µM 0

O=C1Cc2c([nH]c3ccc(Br)cc23)-c2ccccc2N1 [Kenpaullone]
inactive: CDK7; 10 µM 0 | CDK9; 10 µM 0 | CHEK2; 10 µM 0 | CSF1R; 10 µM 0 | CSK; 10 µM 0 | CSNK1A1; 10 µM 0 | CSNK1D; 10 µM 0 | DDR1; 10 µM 0 | DYRK1B; 10 µM 0 | DYRK2; 10 µM 0

Cc1cnc(Nc2ccc(OCCN3CCCC3)cc2)nc1Nc1cccc(S(=O)(=O)NC(C)(C)C)c1 [Fedratinib]
inactive: CDK7; 2.5 µM 0 | CDK9; 2.5 µM 0 | CHEK2; 2.5 µM 0 | CSF1R; 2.5 µM 0 | CSK; 2.5 µM 0 | CSNK1A1; 2.5 µM 0 | CSNK1D; 2.5 µM 0 | DDR1; 2.5 µM 0 | DYRK1B; 2.5 µM 0 | DYRK2; 2.5 µM 0

2 records drawn at random from those above:
Cc1cnc(Nc2ccc(OCCN3CCCC3)cc2)nc1Nc1cccc(S(=O)(=O)NC(C)(C)C)c1 [Fedratinib]
inactive: CDK7; 2.5 µM 0 | CDK9; 2.5 µM 0 | CHEK2; 2.5 µM 0 | CSF1R; 2.5 µM 0 | CSK; 2.5 µM 0 | CSNK1A1; 2.5 µM 0 | CSNK1D; 2.5 µM 0 | DDR1; 2.5 µM 0 | DYRK1B; 2.5 µM 0 | DYRK2; 2.5 µM 0

O=S(=O)(c1cccc2c(O)nccc12)N1CCCNCC1 [Hydroxyfasudil (hydrochloride)]
inactive: CDK7; 10 µM 0 | CDK9; 10 µM 0 | CHEK2; 10 µM 0 | CSF1R; 10 µM 0 | CSK; 10 µM 0 | CSNK1A1; 10 µM 0 | CSNK1D; 10 µM 0 | DDR1; 10 µM 0 | DYRK1B; 10 µM 0 | DYRK2; 10 µM 0

Additional results follow.

O=C(c1ccc(/C=C/c2n[nH]c3ccccc23)cc1)N1CCNCC1
inactive: CDK7; 2.5 µM 0 | CDK9; 2.5 µM 0 | CHEK2; 2.5 µM 0 | CSF1R; 2.5 µM 0 | CSK; 2.5 µM 0 | CSNK1A1; 2.5 µM 0 | CSNK1D; 2.5 µM 0 | DDR1; 2.5 µM 0 | DYRK1B; 2.5 µM 0 | DYRK2; 2.5 µM 0

NC1(C(=O)N[C@@H](CCO)c2ccc(Cl)cc2)CCN(c2nc[nH]c3nccc2-3)CC1 [Capivasertib]
inactive: CDK7; 10 µM 0 | CDK9; 10 µM 0 | CHEK2; 10 µM 0 | CSF1R; 10 µM 0 | CSK; 10 µM 0 | CSNK1A1; 10 µM 0 | CSNK1D; 10 µM 0 | DDR1; 10 µM 0 | DYRK1B; 10 µM 0 | DYRK2; 10 µM 0

O=S(=O)(c1cccc2c(O)nccc12)N1CCCNCC1 [Hydroxyfasudil]
inactive: CDK7; 10 µM 0 | CDK9; 10 µM 0 | CHEK2; 10 µM 0 | CSF1R; 10 µM 0 | CSK; 10 µM 0 | CSNK1A1; 10 µM 0 | CSNK1D; 10 µM 0 | DDR1; 10 µM 0 | DYRK1B; 10 µM 0 | DYRK2; 10 µM 0

C[C@@H]1CN(C(=O)Nc2ccc(-c3nc(N4CCOCC4)c4cnn(CCCCCCC(=O)NO)c4n3)cc2)CCO1 [HDACs/mTOR Inhibitor 1]
inactive: CDK7; 10 µM 0 | CDK9; 10 µM 0 | CHEK2; 10 µM 0 | CSF1R; 10 µM 0 | CSK; 10 µM 0 | CSNK1A1; 10 µM 0 | CSNK1D; 10 µM 0 | DDR1; 10 µM 0 | DYRK1B; 10 µM 0 | DYRK2; 10 µM 0

CC(C)(C)n1nc(-c2ccc(Cl)cc2)c2c(N)ncnc21
inactive: CDK7; 10 µM 0 | CDK9; 10 µM 0 | CHEK2; 10 µM 0 | CSF1R; 10 µM 0 | CSK; 10 µM 0 | CSNK1A1; 10 µM 0 | CSNK1D; 10 µM 0 | DDR1; 10 µM 0 | DYRK1B; 10 µM 0 | DYRK2; 10 µM 0

Cc1cc(C)n2c1C=C1C=CC(CCC(=O)NCCN3CCN(C/C=C/C(=O)N4CCCC(n5nc(-c6ccc(Oc7ccccc7)cc6)c6c(N)ncnc65)C4)CC3)=[N+]1[B-]2(F)F (stereo not given)
inactive: CDK7; 2.5 µM 0 | CDK9; 2.5 µM 0 | CHEK2; 2.5 µM 0 | CSF1R; 2.5 µM 0 | CSK; 2.5 µM 0 | CSNK1A1; 2.5 µM 0 | CSNK1D; 2.5 µM 0 | DDR1; 2.5 µM 0 | DYRK1B; 2.5 µM 0 | DYRK2; 2.5 µM 0

COc1cc(N2CCN(C)CC2)ccc1Nc1nccc(-c2cn(C)c3cnccc23)n1
inactive: CDK7; 10 µM 0 | CDK9; 10 µM 0 | CHEK2; 10 µM 0 | CSF1R; 10 µM 0 | CSK; 10 µM 0 | CSNK1A1; 10 µM 0 | CSNK1D; 10 µM 0 | DDR1; 10 µM 0 | DYRK1B; 10 µM 0 | DYRK2; 10 µM 0

CCCCCCCCCCCCc1ccc(S(=O)(=O)Nc2nncs2)cc1
inactive: CDK7; 10 µM 0 | CDK9; 10 µM 0 | CHEK2; 10 µM 0 | CSF1R; 10 µM 0 | CSK; 10 µM 0 | CSNK1A1; 10 µM 0 | CSNK1D; 10 µM 0 | DDR1; 10 µM 0 | DYRK1B; 10 µM 0 | DYRK2; 10 µM 0

O=c1ncn2nc(Sc3ccc(F)cc3F)ccc2c1-c1c(Cl)cccc1Cl [Neflamapimod]
inactive: CDK7; 10 µM 0 | CDK9; 10 µM 0 | CHEK2; 10 µM 0 | CSF1R; 10 µM 0 | CSK; 10 µM 0 | CSNK1A1; 10 µM 0 | CSNK1D; 10 µM 0 | DDR1; 10 µM 0 | DYRK1B; 10 µM 0 | DYRK2; 10 µM 0

CC(C)n1nc(-c2cc3cc(O)ccc3[nH]2)c2c(N)ncnc21 [Torkinib]
inactive: CDK7; 2.5 µM 0 | CDK9; 2.5 µM 0 | CHEK2; 2.5 µM 0 | CSF1R; 2.5 µM 0 | CSK; 2.5 µM 0 | CSNK1A1; 2.5 µM 0 | CSNK1D; 2.5 µM 0 | DDR1; 2.5 µM 0 | DYRK1B; 2.5 µM 0 | DYRK2; 2.5 µM 0

NCCNc1ncc(C(N)=O)c(Nc2cccc(C(F)(F)F)c2)n1 [Syk Inhibitor II]
inactive: CDK7; 10 µM 0 | CDK9; 10 µM 0 | CHEK2; 10 µM 0 | CSF1R; 10 µM 0 | CSK; 10 µM 0 | CSNK1A1; 10 µM 0 | CSNK1D; 10 µM 0 | DDR1; 10 µM 0 | DYRK1B; 10 µM 0 | DYRK2; 10 µM 0

Nc1ncccc1-c1nc2ccc(-c3ccccc3)nc2n1-c1ccc(C2(N)CCC2)cc1 [Miransertib]
inactive: CDK7; 10 µM 0 | CDK9; 10 µM 0 | CHEK2; 10 µM 0 | CSF1R; 10 µM 0 | CSK; 10 µM 0 | CSNK1A1; 10 µM 0 | CSNK1D; 10 µM 0 | DDR1; 10 µM 0 | DYRK1B; 10 µM 0 | DYRK2; 10 µM 0
